No constants are given. Whether binding was seen depends on the method and setting. Some entries that bind do so weakly or less than the wild type.
Assays:
[1] = biological target: recombinant I-domain of CD11b (Homo sapiens (Human)) (UniProt P11215); experiment: solid phase binding assay (legend of FIG. 2)
[2] = biological target: recombinant I-domain of CD11b (Homo sapiens (Human)) (UniProt P11215); experiment: solid phase binding assay, I-domain coated, detection with MAB2394 (FIG. 2)

Amino acid sequences for entries named in this document (tags omitted). A change or cut given only in a name is not applied to a line headed by its entry.
UniProt Q86YW5: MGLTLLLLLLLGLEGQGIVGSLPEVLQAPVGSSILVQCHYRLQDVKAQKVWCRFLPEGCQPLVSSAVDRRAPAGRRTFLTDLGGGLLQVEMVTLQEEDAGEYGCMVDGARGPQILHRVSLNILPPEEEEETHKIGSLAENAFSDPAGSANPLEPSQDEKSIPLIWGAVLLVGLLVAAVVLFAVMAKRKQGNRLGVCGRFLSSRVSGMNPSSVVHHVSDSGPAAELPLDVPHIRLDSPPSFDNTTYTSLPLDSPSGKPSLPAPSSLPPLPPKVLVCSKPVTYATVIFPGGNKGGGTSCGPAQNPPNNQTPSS

binding [1]: binds | binding [2]: binds
Substance: human TREML1 ECD (from UniProt Q86YW5 16-162) (ligand)

Source: patent US20250011423A1
